# Hit rate of the full screen: of about 400,000 compounds, about 5,500 (1.4%) were called active. Inconclusive results, whose numbers are uncertain, are shown with a selection of clear calls. Calls come from the whole dose curve; as a rule, active = well fitted cell-killing curve with a large enough effect; inconclusive = small, poorly fitted or top-dose-only effect, or effect the other way; inactive = flat fitted curve, though single readings scatter. Where the call is inconclusive, the potency comes from a doubtful curve fit.
# Experiment: qHTS assay for MDR1-selective chemotherapeutics: Primary screen using the parental adenocarcinoma cell KB-3-1; note: nearly all actives have a fitted effect of over 60% in size
# Conditions: KB-3-1 viability, CellTiter-Glo ATP luminescence, 72 h; activity change, negative = cytotoxic: at 46.1 µM (top of the series)
# How it was run: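 Luminescent ATP read-out (CellTiter-Glo) measures survival of drug-naive KB-3-1 cells after 72 h compound exposure at 37 °C. Titration series was screened from lowest to highest concentration, with DMSO vehicle plates as background controls.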
# % is set by controls: 0 for no effect and ±100 for the full control effect; potency is the fitted concentration of half-maximal effect.
SMILES,Potency,"activity change, negative = cytotoxic"
COc1ccc(CNC(=O)c2ccc(-c3cccnc3)c3ccoc23)cc1OC,"inconclusive: 2.91 µM [cytotoxic, full curve]",
CCOC(=O)C(=Cc1ccccc1OC)C(=O)OCC,"inconclusive: 20.6 µM [cytotoxic, partial curve, poor fit]",
Cc1ccc(-c2cccc([C@H]3[C@@H]4C=CC[C@@H](C)[C@@H]4C(=O)N3Cc3ccccc3)c2)cc1,"inconclusive: 32.6 µM [cytotoxic, single point]",
O=C(Nc1cccc(C(=O)N2CCCCC2)c1)C1CCC1,,inactive: 15.4%
CCOc1ccccc1NC(=O)N1CCC(C(=O)c2ccc(F)cc2)CC1,,inactive: -8.52%
O=C(COC(=O)Cc1cccc(F)c1)NCCc1ccccc1,,inactive: -1.09%
CN(CC(=O)Nc1cccc(F)c1)C(=O)/C=C/c1ccc(S(=O)(=O)N2CCCCCC2)cc1,,inactive: -8.8%
Cc1ccc2ncnc(NCCC(=O)O)c2c1,,inactive: 10.8%
Cc1cccc(C)c1-n1nnnc1C(c1ccnc2ccccc12)N(Cc1ccccc1)Cc1ccccc1 (centres undefined),"inconclusive: 20.6 µM [cytotoxic, single point]",
O=S(=O)(NCC(c1ccco1)N1CCN(c2ccccc2)CC1)c1cc(F)ccc1F (centres undefined),,inactive: -5.27%
CCN(CC)S(=O)(=O)c1cccc(NC(=O)c2ccc(C#N)cc2)c1,"inconclusive: 25.9 µM [cytotoxic, single point]",
O=C(NC1CCCCC1)C(c1ccc2ncccc2c1)N(Cc1ccco1)C(=O)c1ccc2c(c1)OCCO2 (centres undefined),"inconclusive: 18.4 µM [cytotoxic, single point]",
CCCCc1nc2ccccc2c(N)c1CCC (tested in a mixture with another compound),"inconclusive: 4.61 µM [cytotoxic, partial curve]",
CCN(CC)CCn1c(=N)n(CC(=O)c2ccc(Br)s2)c2ccccc21,"inconclusive: 29.1 µM [cytotoxic, single point]",
CC(C)(C)c1nn(-c2ccccc2)c2[nH]c(=O)c(CNCc3ccco3)cc12,"inconclusive: 29.1 µM [cytotoxic, single point]",
O=C(COC(=O)c1ccco1)c1ccc(Cl)cc1,"inconclusive: 0.0046 µM [cytotoxic, full curve]",
COc1ccc(C2=NS(=O)(=O)N(C)C(C(=O)N3CCc4ccccc4C3)=C2)cc1OC,"inconclusive: 29.1 µM [cytotoxic, single point]",
N#Cc1ccc(CN2CCN(C(=O)c3ccc(S(=O)(=O)N4CCCCCC4)cc3)CC2)cc1,,inactive: -22.7%
Fc1ccc(CNC(=S)Nc2ccccc2Cl)cc1,,inactive: 0.169%
CNc1nc(C)cc(C)c1S(=O)(=O)c1ccc(C)cc1,"inconclusive: 29.1 µM [cytotoxic, single point]",
CCc1ccc(-c2nc(SCC(=O)NC3CCCC3)n[nH]2)cc1,"inconclusive: 6.51 µM [cytotoxic, full curve]",
CN(C)S(=O)(=O)c1cccc(NC(=O)c2ccc(S(=O)(=O)N3CCCCC3)cc2)c1,,inactive: -3.82%
Cc1nn(C)c2c1c(C(F)(F)F)cc(=O)n2Cc1ccc(Br)cc1F,,inactive: 8.15%
Cc1ccc(Sc2ncccc2COC(=O)Nc2c(C)cccc2C)cc1,active: 25.9 µM,
Cc1ccc(-c2nnn(CC(=O)N(CC(=O)NC3CCCC3)c3ccccc3F)n2)o1,,inactive: 1.49%

# Part of the list above, with bars between the fields.
SMILES | Potency | activity change, negative = cytotoxic
O=C(Nc1cccc(C(=O)N2CCCCC2)c1)C1CCC1 |  | inactive: 15.4%
CCOc1ccccc1NC(=O)N1CCC(C(=O)c2ccc(F)cc2)CC1 |  | inactive: -8.52%
O=C(COC(=O)Cc1cccc(F)c1)NCCc1ccccc1 |  | inactive: -1.09%
CN(CC(=O)Nc1cccc(F)c1)C(=O)/C=C/c1ccc(S(=O)(=O)N2CCCCCC2)cc1 |  | inactive: -8.8%
Cc1ccc2ncnc(NCCC(=O)O)c2c1 |  | inactive: 10.8%
Cc1cccc(C)c1-n1nnnc1C(c1ccnc2ccccc12)N(Cc1ccccc1)Cc1ccccc1 (centres undefined) | inconclusive: 20.6 µM [cytotoxic, single point] | 
O=S(=O)(NCC(c1ccco1)N1CCN(c2ccccc2)CC1)c1cc(F)ccc1F (centres undefined) |  | inactive: -5.27%
CCN(CC)S(=O)(=O)c1cccc(NC(=O)c2ccc(C#N)cc2)c1 | inconclusive: 25.9 µM [cytotoxic, single point] | 
O=C(NC1CCCCC1)C(c1ccc2ncccc2c1)N(Cc1ccco1)C(=O)c1ccc2c(c1)OCCO2 (centres undefined) | inconclusive: 18.4 µM [cytotoxic, single point] | 
CCCCc1nc2ccccc2c(N)c1CCC (tested in a mixture with another compound) | inconclusive: 4.61 µM [cytotoxic, partial curve] | 
CCN(CC)CCn1c(=N)n(CC(=O)c2ccc(Br)s2)c2ccccc21 | inconclusive: 29.1 µM [cytotoxic, single point] | 
CC(C)(C)c1nn(-c2ccccc2)c2[nH]c(=O)c(CNCc3ccco3)cc12 | inconclusive: 29.1 µM [cytotoxic, single point] | 
O=C(COC(=O)c1ccco1)c1ccc(Cl)cc1 | inconclusive: 0.0046 µM [cytotoxic, full curve] | 
COc1ccc(C2=NS(=O)(=O)N(C)C(C(=O)N3CCc4ccccc4C3)=C2)cc1OC | inconclusive: 29.1 µM [cytotoxic, single point] | 
N#Cc1ccc(CN2CCN(C(=O)c3ccc(S(=O)(=O)N4CCCCCC4)cc3)CC2)cc1 |  | inactive: -22.7%
Fc1ccc(CNC(=S)Nc2ccccc2Cl)cc1 |  | inactive: 0.169%
CNc1nc(C)cc(C)c1S(=O)(=O)c1ccc(C)cc1 | inconclusive: 29.1 µM [cytotoxic, single point] | 
CCc1ccc(-c2nc(SCC(=O)NC3CCCC3)n[nH]2)cc1 | inconclusive: 6.51 µM [cytotoxic, full curve] | 

# (more compounds)

SMILES,Potency,"activity change, negative = cytotoxic"
CCOc1ccc(NC(=O)c2cnccn2)cc1,"inconclusive: 23.1 µM [cytotoxic, single point]",
CCOc1ccc(N(Cc2ccccc2)C(=O)c2nc(SC)ncc2Cl)cc1,"inconclusive: 18.4 µM [cytotoxic, partial curve, poor fit]",
O=C(c1cc(-c2ccccc2)on1)N(Cc1cccnc1)C(c1ccccn1)c1nc2ccccc2[nH]1 (centres undefined),,inactive: -9.27%
COc1ccc(OC)c(NC(=O)c2cccc(N3C(=O)C4C5C=CC(C6CC56)C4C3=O)c2)c1 (centres undefined),,inactive: -21.8%
Cc1ccc(Nc2nc(-c3ccc(O)cc3O)cs2)nc1,active: 20.6 µM,
COc1ccc2ccccc2c1/C=N/n1cnnc1,,inactive: -0.987%
Nc1nc(CN2CCN(c3ccccc3)CC2)nc(Nc2ccc(Cl)cc2)n1,"inconclusive: 8.2 µM [cytotoxic, partial curve, poor fit]",
C=CCc1cc(C)ccc1OCC(O)CN1CCN(c2ccccc2)CC1 (centres undefined),,inactive: 1.19%
Cc1ccccc1NS(=O)(=O)c1ccc(N2CCCC2=O)cc1,active: 5.17 µM,
CCCCC(=O)N(C)c1c(CC)nc2c(OCc3cc(Cl)cc(Cl)c3)cccn12,"inconclusive: 29.1 µM [cytotoxic, single point]",
CC(C)(C)NCC(O)COc1ccccc1C1CCCC1 (centres undefined),"inconclusive: 29.1 µM [cytotoxic, single point]",
N#Cc1ccc(NC(=O)COCc2cc(-c3ccco3)on2)cc1,,inactive: -0.692%
Cc1ccc(NS(=O)(=O)c2ccc(C(=O)N3CCN(S(=O)(=O)c4ccccc4)CC3)cc2)cc1,"inconclusive: 23.1 µM [cytotoxic, single point]",
Cn1nnnc1Sc1ncnc2scc(-c3ccccc3)c12,"inconclusive: 10.3 µM [cytotoxic, partial curve, poor fit]",
CSc1ccc(C(=O)C2CCCN(S(=O)(=O)N(C)C)C2)cc1 (centres undefined),"inconclusive: 25.9 µM [cytotoxic, single point]",
CC1CCc2c(sc3nc(CSc4nnnn4C)[nH]c(=O)c23)C1 (centres undefined),,inactive: -12.7%
CCN(CC)CCCC(C)NC(=O)c1cccc(S(=O)(=O)N2CCc3ccccc32)c1 (centres undefined),,inactive: -6.48%
COc1ccccc1OCCNC(=O)CN1C(=O)NC2(CCCCC2)C1=O,,inactive: 17.2%
COc1cc(/C=C(\C#N)c2ccccn2)cc(OC)c1O,active: 7.31 µM,
CCCCCCCCN1C(=O)[C@H](CC(=O)NCCCC)C[C@@]2(C(=O)OCC)CCCC=C12,"inconclusive: 16.4 µM [cytotoxic, single point]",
CC(=O)OCC1=C(C(=O)O)N2C(=O)C(NC(=O)Cc3ccccc3)C2SC1 (centres undefined),"inconclusive: 29.1 µM [rising, partial curve, poor fit]",
Cn1ccc2c(-c3cncc4ccccc34)cc3c(c21)C1CCC3O1 (centres undefined),"inconclusive: 29.1 µM [cytotoxic, single point]",
CN(C)C=NC1=NN(c2cccc(C(F)(F)F)c2)CC1,active: 20.6 µM,
CC1(C)CC(=O)C(C=Nc2ccc3cn[nH]c3c2)=C(O)C1,,inactive: 0.506%
COc1ccc(C(=O)Nc2ccc(N3CCCCCC3)cc2)cc1S(=O)(=O)N1CCOCC1,"inconclusive: 14.6 µM [cytotoxic, partial curve, poor fit]",

SMILES,Potency,"activity change, negative = cytotoxic"
CCOC(=O)c1ccccc1NC(=O)CN1C(=O)CC(c2ccccc2)Sc2ccccc21 (centres undefined),"inconclusive: 16.4 µM [cytotoxic, single point]",
Cc1cc(/C=N/NC(=O)c2cccs2)c(C)n1-c1ccccc1,active: 16.4 µM,
O=C(NCc1ccc(Cl)cc1)C1CCC(CNS(=O)(=O)c2ccccc2)CC1 (centres undefined),,inconclusive: -31%
CC(=O)Nc1ccccc1N(C)S(=O)(=O)c1ccc(C)cc1,"inconclusive: 18.4 µM [cytotoxic, partial curve, poor fit]",
Cc1ccc(NC(=O)/C=C/c2ccco2)cc1F,"inconclusive: 23.1 µM [cytotoxic, single point]",
CC(C)c1cccc(-c2csc(C(O)c3ccccc3)n2)c1 (centres undefined),"inconclusive: 29.1 µM [cytotoxic, single point]",
O=C(c1cc(=O)[nH]c2ccccc12)N1CC=C(c2ccccc2)CC1,,inactive: -17.9%
Cc1ccc(S(=O)(=O)NC(=O)C2(C)CCN2C(=O)Cc2ccc(Cl)cc2Cl)cc1 (centres undefined),,inactive: -11.9%
COC(=O)c1ccc2nc(-c3ccccc3)c(Cc3ccsc3)n2c1,"inconclusive: 8.2 µM [cytotoxic, partial curve]",
O=c1[nH]c2cc(Cl)c(Br)cc2o1,,inactive: -11.3%
O=[N+]([O-])c1cc(C(F)(F)F)ccc1NCCCCNS(=O)(=O)c1ccc(Cl)cc1,"inconclusive: 29.1 µM [cytotoxic, single point]",
Nc1ccccc1Oc1ccc2ccccc2c1,,inactive: -4.28%
Cc1ccc(SSc2cc(C)ccc2N)c(N)c1,"inconclusive: 29.1 µM [cytotoxic, single point]",
Cc1cc(Br)cnc1NC(=S)Nc1ccc(F)cc1F,,inactive: 1.68%
COc1ccc(-c2cn(Cc3cccc(OC)c3)nn2)cc1,"inconclusive: 14.6 µM [cytotoxic, single point]",
Cc1nc2ccc(C(=O)N3CCN(Cc4ccccc4)CC3)cc2[nH]1,,inactive: 4.68%
COC(=O)C=C1CCC2C3CCC4=CC(=O)C(Br)CC4(C)C3C(=O)CC12C (centres undefined),"inconclusive: 29.1 µM [cytotoxic, single point]",
O=C(NCCc1ccccc1)C1CCN(c2nc3ccccc3nc2C(F)(F)F)CC1,"inconclusive: 23.1 µM [cytotoxic, single point]",
COc1ccc(C2=NOC(C(=O)NCc3cccs3)C2)cc1 (centres undefined),active: 6.51 µM,
Cc1ccc(C(NC(=O)C2CCN(Cc3ccc(Cl)c(Cl)c3)CC2)c2ccccn2)cc1 (centres undefined),"inconclusive: 29.1 µM [cytotoxic, single point]",
COc1ccccc1N1CCN(c2ncnc3c2cnn3-c2ccc(C)cc2)CC1,,inactive: -0.743%
CCCCCSc1nnc2c(n1)[nH]c1c(C)cccc12,"inconclusive: 29.1 µM [cytotoxic, single point]",
CCOc1ccc(C2NC(=O)NC(C)=C2C(=O)OCc2ccccc2)cc1 (centres undefined),"inconclusive: 29.1 µM [cytotoxic, single point]",
CCOc1ccc(C(=O)C(C)OC(=O)C2CCN(c3ccc(C(F)(F)F)cn3)CC2)cc1 (centres undefined),"inconclusive: 29.1 µM [cytotoxic, single point]",
